# Test results as given in the RepoRT retention time repository.
# Experiment: HILIC, Waters ACQUITY UPLC BEH Amide, 100 × 2.1 mm, 1.7 µm; A: water + 0.125% formic acid + 10 mM ammonium formate; B: 5% water + 95% acetonitrile + 0.125% formic acid + 10 mM ammonium formate; gradient (min/%B) 0/100 2/100 7.7/70 9.5/40 10.25/30 12.75/100 17/100
# Conditions: stereoisomer not certain
row,Compound,LC retention time [min]
1,Cc1cccc(CCN2CCC(C(=O)c3ccc(NS(C)(=O)=O)cc3)CC2)n1 [E-4031],2.92
2,Cc1c(C(=O)NN2CCCCC2)nn(-c2ccc(Cl)cc2Cl)c1-c1ccc(I)cc1 [AM-251],0.97
